Literature values as cited in patent US20130330754A1, “SOL-GEL DERIVED SENSOR FOR RAPID DETERMINATION OF HEAVY METALS” (priority 2012, published 2013).
Some of these results come from one statement about several compounds together. For at least one compound, name, drawing or mass did not settle the structure.

Settings: pH 7; cited from earlier work

| Structure (SMILES) | EDTA-metal conditional formation constants K′f |
| --- | --- |
| [Cl][Cd][Cl] [Cd(II), CdCl2] | > 10^13 M |
| [Cl][Hg][Cl] [Hg(II), HgCl2] | > 10^13 M |
